In paper PMC7297531:
Results are given in words; binding and its absence hold for the method and conditions named. Binding seen in cells or lysates may run through a third protein. Some binding calls cover weakened binding; strength is not graded here.

Experiments:
Conditions in all cases: remark: other sources report otherwise
HA-tagged MCL1, Q07820 = experiment: co-IP; lysates of SgMARCH5-KO, HA-MCL1 or control LNCaP cells, same protein amounts, precipitated with anti-MCL1 mouse antibody or control mouse IgG and protein G agarose, blotted for MCL1, BIM, BAK and NOXA
[1] = biological target: MCL1 (human (endogenous in LNCaP)), Q07820; experiment: as above
[2] = biological target: MCL1 (human (endogenous in LNCaP)), Q07820; experiment: co-IP; lysates of SgMARCH5-KO or control LNCaP cells (IP lysis buffer) precipitated with anti-MCL1 rabbit antibody or control rabbit IgG and protein A agarose, blotted with mouse antibodies; in Figure 4C SgMARCH5-KO cells treated with erlotinib (10 uM), S63845 (0.5 uM) or DMSO for 3 hr

Measured: binding

B1: NOXA, Q13794 1-54 (protein)
chain: MPGKKARKNAQPSPARAPAELEVECATQLRRFGDKLNFRQKLLNLISKLFCSGT
binds: HA-tagged MCL1, Q07820 | [1] | [2]
